Earlier results as cited in patent US6924273B2, “Chondroprotective/restorative compositions and methods of use thereof” (priority 2000, dated 2005).
Some results were stated once for a whole list of compounds, not compound by compound. Some compounds share one range, which may span the group rather than tell each member.

Details: oral administration

bioavailability, 15-20%:
Dermatan sulfate [DS]
Heparin sulfate [HS]
Chondroitin sulfate [CS]
